Laboratory results from PubChem BioAssay AID1347076 (National Center for Advancing Translational Sciences (NCATS), 2019).
Hit rate of the full screen: of about 400,000 compounds, about 13,000 (3.2%) were called active. The shares of active, inactive and inconclusive entries below differ from those in the screen. Calls follow the shape of the dose curve; as a rule, active = well fitted cell-killing curve with a large enough effect; inconclusive = small, poorly fitted or top-dose-only effect, or effect the other way; inactive = flat fitted curve, though single readings scatter. Potencies of inconclusive entries are doubtful fits and often do not repeat.

Assay: qHTS assay for MDR1-selective chemotherapeutics: Primary screen using the drug-selected MDR subline cells KB-V1; also: nearly all actives have a fitted effect of over 60% in size
Conditions: KB-V1 MDR cells viability, CellTiter-Glo, 72 h; series mostly up to 46.1 µM
Summary of the method: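 KB-V1, DMEM (no phenol red) + 10% FBS; cpd pin-transferred, titration series; 72 h, 37 degrees C; CellTiter-Glo, luminescence. Data normalized, curve-fit.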
Potency is read from the fitted curve at half-maximal effect.

SMILES	Potency
CCCNC(=S)N1CCN(c2nc(-c3ccc(C)cc3)cs2)CC1	inconclusive: 16.4 µM [cytotoxic, single point]
CSc1ccc(Cl)c(C(=O)N2CCN(c3ncccn3)CC2)c1	inactive
COc1ccc(CCNC(=O)COc2ccc(S(=O)(=O)NC3CCCCC3)cc2Cl)cc1OC	active: 10.3 µM
COc1ccc2c3c1O[C@H]1C[C@@H](O)C=C[C@@]31CCN(C)C2	inconclusive: 29.1 µM [cytotoxic, single point]
COc1cccc(-c2cc(C(=O)Nc3ccncc3)c3ccccc3n2)c1	inconclusive: 5.8 µM [cytotoxic, partial curve]
O=C(NCCC(=O)N(Cc1ccco1)Cc1cccs1)c1ccccc1Cl	inactive
O=C(COc1ccc([N+](=O)[O-])cc1)Nc1cccc2cccnc12	inconclusive: 29.1 µM [cytotoxic, partial curve, poor fit]
CCN(CC)S(=O)(=O)c1cc(NC(=O)CNc2cccc(S(=O)(=O)N3CCOCC3)c2)ccc1C	inactive
COc1ccc(S(=O)(=O)N2CCN(Cc3ccc4c(c3)OCO4)CC2)cc1F	inconclusive: 18.4 µM [cytotoxic, partial curve, poor fit]
CCc1ccccc1NC(=O)CSC1=Nc2ccccc2C2=NC(Cc3ccccc3)C(=O)N12 (centres undefined)	inconclusive: 20.6 µM [cytotoxic, single point]
CCN(CCNCC(O)COCc1ccc(Cl)cc1)c1cccc(C)c1 (centres undefined)	inconclusive: 11.6 µM [cytotoxic, partial curve]
Cc1cc(=O)oc2cc(OCC3CC(c4ccccc4)=NO3)ccc12 (centres undefined)	active: 8.2 µM
Cc1ccc(Cn2c(=N)n(CC(O)COc3ccccc3)c3ccccc32)cc1 (centres undefined)	active: 16.4 µM
O=C(C[n+]1cccc2cc(Cl)ccc21)c1ccc2ccccc2c1	inactive
Cc1c(NC(=O)c2ccc(C(C)(C)C)cc2)cccc1[N+](=O)[O-]	inconclusive: 29.1 µM [cytotoxic, single point]
CCCc1cc(CN2CCOCC2)c(O)c(CN2CCOCC2)c1O	inconclusive: 29.1 µM [cytotoxic, single point]
OC(CN1CCCCC1)Cn1c2ccccc2c2cc(Br)ccc21 (centres undefined)	active: 16.4 µM
COc1ccc(/C=C2\Sc3ccc(C(=O)N4CCOCC4)cc3N(C)C2=O)cc1	inactive
Cc1ccc(CNC(=O)C(=O)NCCC2CCCCN2S(=O)(=O)c2cccs2)cc1 (centres undefined)	inconclusive: 23.1 µM [cytotoxic, single point]
O=c1c2cc(N3CCOCC3)ccc2[nH]c(=S)n1Cc1ccco1	active: 13 µM
Cc1cccc(C)c1NC(=O)CN1C(=O)NC(C)(C2CC2)C1=O (centres undefined)	inactive
CCOC(=O)c1c(-c2ccc(C)cc2)cn2ccccc12	inconclusive: 29.1 µM [cytotoxic, single point]
Cc1ccc(OCC(=O)Nc2ccc(S(=O)(=O)Nc3cc(C)nc(C)n3)cc2)cc1	inconclusive: 29.1 µM [rising, single point]

Reprinted at random: two records from the list, in no set order.
SMILES	Potency
COc1ccc(CCNC(=O)COc2ccc(S(=O)(=O)NC3CCCCC3)cc2Cl)cc1OC	active: 10.3 µM
O=c1c2cc(N3CCOCC3)ccc2[nH]c(=S)n1Cc1ccco1	active: 13 µM

Later entries:

SMILES	Potency
CC(C)N(Cc1ccccc1)C(=O)CN1C(=O)NC(Cc2ccccc2)(c2ccccc2)C1=O (centres undefined)	inconclusive: 4.61 µM [cytotoxic, full curve]
COc1ccc2c(c1OC)C(=O)N1c3ccccc3C(=O)N(Cc3ccco3)C21 (centres undefined)	inconclusive: 20.6 µM [cytotoxic, single point]
CC1CCCC(NC(=S)NC(=O)c2ccccc2Br)C1C (centres undefined)	active: 16.4 µM
CCOc1cc(CNC(=O)c2ccc3c(c2)N(C)C(=O)C2CCCCN32)cc(OCC)c1OCC (centres undefined)	inactive
CCCOc1ccc(C(=O)Nc2cccnc2)cc1	inactive
COc1cc(/C=C/C(=O)OCc2cn3cc(Cl)ccc3n2)ccc1O	inconclusive: 23.1 µM [cytotoxic, partial curve]
CSc1nnc(-c2sc3cc(C(F)(F)F)cnc3c2-c2cccnc2)n1C	inconclusive: 29.1 µM [cytotoxic, single point]
Cc1ccc(-n2cnc3c(=O)[nH]cnc32)cc1[N+](=O)[O-]	inconclusive: 5.17 µM [cytotoxic, partial curve, poor fit]
Cc1ccc(NC(=O)C2(C)CCN2C(=O)Cc2ccc(C(C)C)cc2)cc1 (centres undefined)	inconclusive: 20.6 µM [cytotoxic, single point]
CSc1ccc(CCNC(=O)c2ccc(CS(=O)(=O)c3ccc(Br)cc3)o2)cc1	inactive
Cc1ncoc1C(=O)N1CCCC(CCC(=O)NCc2ccccc2F)C1 (centres undefined)	inconclusive: 3.66 µM [rising, partial curve, poor fit]
Oc1ccccc1C=NN=C1c2ccccc2-c2ccccc21	inconclusive: 18.4 µM [cytotoxic, single point]
COC(=O)c1ccc(Nc2c([N+](=O)[O-])ccc3nonc23)cc1	inconclusive: 29.1 µM [cytotoxic, single point]
Cc1ccccc1C(=O)OCC(=O)N(C)c1ccccc1	inactive
CC1CCc2c(sc(NC(=O)c3ccc(Cl)cc3Cl)c2C#N)C1 (centres undefined)	inactive
COc1ccc(C(c2nnnn2-c2ccc(OC)cc2)N2CCN(C/C=C/c3ccccc3)CC2)cc1 (centres undefined)	inconclusive: 29.1 µM [cytotoxic, single point]
COc1ccc2cc(C#N)c(SCC(=O)NNC(=O)Cc3ccccc3)nc2c1	inconclusive: 18.4 µM [cytotoxic, partial curve, poor fit]
CCCCCCCCN1C(=O)[C@H](CC(=O)NCCCCc2ccccc2)C[C@@]2(C(=O)OC)CCCCC=C12	inconclusive: 20.6 µM [cytotoxic, partial curve]
COc1ccc(NC(=O)C2c3ccccc3OCC(=O)N2Cc2cccnc2)cc1 (centres undefined)	inactive
Cc1c(Cl)cccc1N1C(N)=C(C#N)C(c2cc(CN3CCOCC3)cs2)C2=C1CCCC2=O (centres undefined)	inactive
Cc1nn(Cc2c(Cl)cccc2Cl)c(C)c1NC(=O)c1cc(C(C)C)on1	inconclusive: 3.66 µM [cytotoxic, partial curve, poor fit]
CC1Cc2ccccc2N1C(=O)CSc1nnc(-c2ccc(S(=O)(=O)N3CCCC3)cc2)o1 (centres undefined)	active: 2.06 µM
CC(C)CC1C(=O)N(Cc2cn(CC3CCCCC3)nn2)CCS(=O)(=O)N1Cc1ccc(-c2cccc(CO)c2)cc1 (centres undefined)	inconclusive: 23.1 µM [cytotoxic, single point]

SMILES	Potency
O=C(CN1C(=O)c2ccccc2S1(=O)=O)NC(Nc1ccccc1F)C(Cl)(Cl)Cl (centres undefined)	inconclusive: 20.6 µM [rising, single point]
CCc1ccc2nc(SCC(=O)N(CC)CC)c(C#N)cc2c1	active: 13 µM
O=C(Nc1cccc2c1CCCC2)c1ccccc1Cl	inactive
Cc1nc2oc3c(NCc4ccccc4)ncnc3c2c2c1COC(C)(C)C2	inconclusive: 6.31 µM [cytotoxic, full curve]
O=C1N(Cc2cccc(C(F)(F)F)c2)c2ccccc2S(=O)(=O)N1c1cccc(Cl)c1	inconclusive: 29.1 µM [cytotoxic, single point]
COc1cccc(NC(=O)CN(C)C(=O)c2cc(S(=O)(=O)N3CCCCCC3)ccc2OC)c1	inactive
COc1ccc(-c2coc3c(C(=O)NCCc4ccccc4)cccc23)c(C)c1	inconclusive: 29.1 µM [cytotoxic, single point]
N#Cc1nc(-c2ccco2)oc1N1CCC(C(N)=O)CC1	inconclusive: 16.4 µM [rising, single point]
Cc1c(Cl)c([N+](=O)[O-])nn1CCCC(=O)NC1CCCCC1	inconclusive: 13 µM [cytotoxic, partial curve]
CCCCN(CCCC)CCNC(=O)c1cn(C)c2ccc(S(=O)(=O)N3CCCC3)cc2c1=O	inconclusive: 29.1 µM [rising, single point]
Cc1cccc(-c2nc(CN3CCCC(C(=O)NC4CCC(C)CC4)C3)c(C)o2)c1 (centres undefined)	active: 20.6 µM
Brc1cc2c(cc1/C=N/Nc1nc(N3CCCC3)nc(N3CCOCC3)n1)OCO2	inconclusive: 29.1 µM [cytotoxic, single point]
Cc1nn(C(=O)N2CCOCC2)c(C)c1CN1C(=O)c2ccccc2C1=O	inconclusive: 23.1 µM [cytotoxic, single point]
O=C(COC(=O)Cc1cccc(C(F)(F)F)c1)Nc1ccc2c(c1)OCCO2	inconclusive: 29.1 µM [rising, single point]
CC1(NC(=S)N(CCO)CCO)CCS(=O)(=O)C1 (centres undefined)	inconclusive: 23.1 µM [cytotoxic, single point]
CCNc1ccc(S(=O)(=O)N(C)C)cc1NCC(=O)Nc1ccccc1Br	inconclusive: 8.2 µM [cytotoxic, partial curve]
O=S(=O)(c1ccccc1)N1N=C(c2ccc(Br)cc2)CC1c1ccco1 (centres undefined)	inconclusive: 20.6 µM [cytotoxic, single point]
O=C(Nc1cccc(Cl)c1N1CCCC1)c1ccc([N+](=O)[O-])o1	inconclusive: 20.6 µM [cytotoxic, single point]
Cc1ccc(C(=O)Nc2ncccc2C)cc1S(=O)(=O)N1CCOCC1	inactive
Cc1cccc(-n2nnc3c(=O)n(Cc4ccccn4)cnc32)c1	inconclusive: 18.4 µM [cytotoxic, partial curve]
O=C(Nc1nnc(-c2ccccc2)o1)c1nc2ccccc2s1	inactive
c1ccc(-c2ccc(-c3nc(-c4ccccn4)no3)cc2)cc1	active: 8.2 µM
COc1cccc(C(O)c2ncc(-c3ccc(Cl)cc3)[nH]2)c1 (centres undefined)	inconclusive: 29.1 µM [cytotoxic, single point]

By substructure: the entries above containing an NH in an aromatic ring
SMILES	Potency
O=c1c2cc(N3CCOCC3)ccc2[nH]c(=S)n1Cc1ccco1	active: 13 µM
Cc1ccc(-n2cnc3c(=O)[nH]cnc32)cc1[N+](=O)[O-]	inconclusive: 5.17 µM [cytotoxic, partial curve, poor fit]
COc1cccc(C(O)c2ncc(-c3ccc(Cl)cc3)[nH]2)c1 (centres undefined)	inconclusive: 29.1 µM [cytotoxic, single point]
